The structures appear in SMILES notation. The list shows a part of the results. Shown are side measurements of this screen, not its main read-out; they come without a call. Compounds called inactive in the main read-out are mostly missing here. Potencies come from curve fits of mixed quality, noted in brackets.

This test can be described thus: Cell signaling CRE-BLA (Fsk stim). The settings on record: CHO CRE-bla reporter (cAMP response element driving beta-lactamase), forskolin EC10, beta-lactamase ratio; measured here: 460 nm blue channel. In outline: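 Beta-lactamase reporter under a cAMP responsive element in CHO cells; compounds tested in titration series against EC10 NKH 477, 3 h at 37 °C. Read-out: CCF4 FRET ratio 460nm/530nm (excitation 405nm) giving %Activity, fitted to AC50.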
As for `COc1ccccc1N1CCN(CCN2C(=O)CC3(CCCC3)CC2=O)CC1`, the half-maximal activity concentration (AC50) – broadly, the concentration at which the activity in the assay is half-maximal – is 1.58 µM [rising, partial curve, poor fit].

`CN1CCN(c2ncc3nc(-c4cccc(C#N)c4)c(=O)n(CCc4ccccc4)c3n2)CC1`: the AC50 was 10 µM [rising, partial curve].

For `Cc1cc(-c2nnc(-c3cc4ccccc4oc3=O)o2)c(C)n1-c1ccccc1`, the half-maximal activity concentration (AC50) is 10 µM [rising, partial curve].

For `CCOCCn1c(N2CCN(c3ccc(OC)cc3)CC2)nc2c1c(=O)n(C)c(=O)n2C`, the half-maximal activity concentration (AC50) was 12.6 µM [rising, single point].

Turning to `Cc1ccc2cc3cc(C(=O)N(C)C4CCCCC4)oc3nc2c1`, the concentration at half-maximal activity (AC50) is 0.1 µM [rising, full curve].

With `CN(Cc1ccco1)c1cc(-c2cccnc2)ncn1`, the half-maximal activity concentration (AC50) is 0.316 µM [rising, full curve, poor fit].

`Nc1ccc2c(C(F)(F)F)cc(=O)oc2c1`: the AC50 is 12.6 µM [rising, partial curve].

Take `O=C(CN(Cc1ccco1)C(=O)CNS(=O)(=O)c1ccccc1)NCc1ccccc1`: the AC50 was 25.1 µM [falling, single point].

With `O=c1c(-c2cccs2)nc2cnc(N3CCOCC3)nc2n1Cc1cccs1`, the half-maximal activity concentration (AC50) was 10 µM [rising, partial curve].

Take `COc1cc2nc(C)sc2cc1SC`: the AC50 was 5.01 µM [rising, full curve, poor fit].

In the case of `CCOC(=O)c1c(C)[nH]c(C(=O)NCc2ccccc2OC)c1C`, the half-maximal activity concentration (AC50) was 10 µM [rising, partial curve].

With `CC(=O)N1CCN(c2ccc(Nc3nc(C)nc4c3oc3ccccc34)cc2)CC1`, the half-maximal activity concentration (AC50) was 0.398 µM [rising, full curve].

In the case of `C=CCn1c(-c2ccccc2)nc2nc3ccccc3nc21`, the concentration at half-maximal activity (AC50) is 2.51 µM [rising, full curve].

Turning to `COc1ccc(OC)c(CNC(=O)COc2cc(=O)n(C)c3ccccc23)c1`, the concentration at half-maximal activity (AC50) was 10 µM [rising, partial curve].

On to `CCN1CCN(CC(O)COc2ccc(C)c(C)c2)CC1` (stereo not drawn), for which the AC50 was 0.126 µM [falling, full curve, poor fit].

With `O=C1C(=C2CCCCC2)SC(=S)N1Cc1ccco1`, the half-maximal activity concentration (AC50) is 0.00316 µM [falling, full curve, poor fit].

`Cc1ccccc1-c1nnc(SCC(=O)Nc2ccc(Cl)cc2)n1N`: the AC50 is 1.26 µM [falling, full curve].

As for `Cc1ccc(-c2csc3ncnc(Sc4nnc(CN5CCCCCC5=O)o4)c23)cc1`, the AC50 was 0.398 µM [falling, full curve].

Consider `COc1cccc(Cn2c(=O)c(-c3cc(F)cc(F)c3)nc3cnc(OC)nc32)c1`, for which the concentration at half-maximal activity (AC50) was 2 µM [rising, full curve, poor fit].

Regarding `O=c1c(-c2ccc(F)cc2)nc2cnc(Nc3ccccc3)nc2n1Cc1cccs1`, the AC50 was 1.26 µM [rising, full curve].

On to `CN1CCN(C2=C(Cl)C(=O)N(c3ccc(Cl)cc3)C2=O)CC1`, for which the concentration at half-maximal activity (AC50) was 25.1 µM [falling, single point].

Regarding `Cc1cccc(CNc2ncnc3ccc(-c4c(C)noc4C)cc23)c1`, the concentration at half-maximal activity (AC50) is 10 µM [rising, partial curve].

`CSc1nc(C)cc(-n2ccc(=O)[nH]c2=O)n1`: the AC50 was 3.16 µM [rising, single point].

As to `COc1ccc2nc(NC(=O)CN(c3ccc(C)cc3)S(=O)(=O)c3c(C)nn(C)c3C)sc2c1`, the AC50 was 1.58 µM [rising, full curve].

With `O=C(CN1CCNCC1)Nc1ccccc1Cl`, the concentration at half-maximal activity (AC50) is 0.631 µM [falling, full curve, poor fit].

As to `CCNC(=O)NC(=O)C(C)Oc1ccc(C(=O)OC)cc1` (stereo not drawn), the AC50 was 5.01 µM [rising, single point].

Regarding `O=c1cc(CO)oc(CN2CCN(c3ccccc3)CC2)c1O`, the AC50 is 0.794 µM [falling, full curve].

With `COc1cccc(C(=O)Nc2c(C(N)=O)oc3ccccc23)c1`, the concentration at half-maximal activity (AC50) was 3.16 µM [rising, full curve].

For `O=C(Nc1nc2ccccc2[nH]1)C1CC(=O)N(c2ccc3c(c2)OCCO3)C1` (stereo not drawn), the AC50 is 7.94 µM [falling, partial curve].

`c1cncc(-c2ccc3ncnc(NCCN4CCOCC4)c3c2)c1`: the AC50 was 12.6 µM [rising, single point].

For the compound `COc1cccc(NC(=O)CCSc2nnc3scc(-c4ccccc4)n23)c1`, the concentration at half-maximal activity (AC50) was 1.26 µM [rising, partial curve].

`Cc1cc(N(C)C)c(C#N)c(NCc2ccccc2)n1`: the AC50 is 15.8 µM [rising, single point].

`O=[N+]([O-])c1cc(Cl)c(Cl)c(Cl)c1Cl`: the concentration at half-maximal activity (AC50) was 31.6 µM [falling, single point].

For `O=C(O)c1ccccc1Nc1cccc(OCc2ccc3ccccc3n2)c1`, the AC50 is 2.51 µM [rising, partial curve].

On to `Cn1c(C(=O)NC2CC2)cc2c(=O)n(C)c3ccccc3c21`, for which the concentration at half-maximal activity (AC50) is 3.16 µM [rising, full curve].

On to `O=C(Oc1ccc(-c2nnco2)cc1)N(c1ccccc1)c1ccccc1`, for which the AC50 is 25.1 µM [rising, single point].

Regarding `CCOC(=O)C1=C(C)NC(=O)NC1/C=C/c1ccccc1` (stereo not drawn), the AC50 was 25.1 µM [rising, single point].

Regarding `CCOC(=O)N1CCC(Nc2nc3ccccc3n3cnnc23)CC1`, the concentration at half-maximal activity (AC50) was 10 µM [rising, partial curve].

Consider `Cc1ccc(NCc2nnc(SCC(=O)NCc3ccco3)n2CC2CCCO2)cc1Cl` (stereo not drawn), for which the concentration at half-maximal activity (AC50) was 2.51 µM [rising, single point].

Turning to `Cc1ccc(-c2c3c(=O)n(C)c(=O)n(C)c3cn2-n2cnnc2)cc1`, the AC50 is 0.0794 µM [falling, full curve].

On to `CCC(C)[C@H](NC(=O)NCc1ccco1)C(=O)O` (stereo partly drawn), for which the half-maximal activity concentration (AC50) was 3.16 µM [rising, single point].

For the compound `COc1ccc(Cn2c(CCC(=O)O)nc3cccnc32)cc1`, the AC50 is 0.316 µM [falling, full curve, poor fit].

Regarding `CCCCNC(=O)c1cc(-c2ccc(F)cc2)on1`, the half-maximal activity concentration (AC50) is 0.501 µM [falling, partial curve].

Consider `CN1CCN(S(=O)C23CC4CC(CC(C4)C2)C3)CC1` (stereo not drawn), for which the concentration at half-maximal activity (AC50) was 15.8 µM [rising, partial curve].

Regarding `COC(=O)c1cn(-c2ccccc2)nc1-c1cccnc1`, the concentration at half-maximal activity (AC50) was 12.6 µM [rising, partial curve].

For the compound `CCC(=O)N1c2ccc(S(=O)(=O)CCC(=O)NCCC3=CCCCC3)cc2CC1C` (stereo not drawn), the concentration at half-maximal activity (AC50) is 0.158 µM [falling, partial curve, poor fit].

For `COc1ccc(N2CCN(C(=O)C3CCC(Cn4c(=S)[nH]c5ccccc5c4=O)CC3)CC2)cc1` (stereo not drawn), the AC50 is 25.1 µM [falling, single point].

In the case of `CC(C)(C)OC(=O)c1c(N)n(CCCN2CCCC2=O)c2nc3ccccc3nc12`, the half-maximal activity concentration (AC50) is 12.6 µM [rising, partial curve].

Take `CN(C)Cc1nc2ccccc2c(=O)n1Cc1nc(-c2cc3ccccc3o2)cs1`: the concentration at half-maximal activity (AC50) is 0.316 µM [falling, partial curve, poor fit].

For `CCCCn1c2nc3ccccc3nc2c2c(=N)oc(C)nc21`, the AC50 was 10 µM [rising, partial curve].

In the case of `COc1ncc2nc(-c3ccccc3)c(=O)n(-c3ccccc3)c2n1`, the half-maximal activity concentration (AC50) was 12.6 µM [rising, single point].

Consider `CCCn1nc(-c2ccccc2)c2nc3ccccc3nc21`, for which the AC50 is 3.98 µM [rising, full curve].

With `CCn1c(SCc2ccc(C(=O)OC)o2)nc2sc3c(c2c1=O)CCCC3`, the concentration at half-maximal activity (AC50) was 10 µM [rising, partial curve].

On to `Cc1ccc(NC(=O)CC2Nc3ccccc3NC2=O)cc1Cl` (stereo not drawn), for which the AC50 was 10 µM [rising, partial curve].

Consider `CCCCOc1ccccc1NC(=O)c1ccco1`, for which the AC50 was 10 µM [rising, partial curve].

In the case of `COc1ccc(C(=O)n2c(-c3ccco3)nc3ccccc32)cc1`, the AC50 was 5.01 µM [falling, single point].

For `COc1ccccc1CNc1ccnc(-c2ccc(N(C)C)cc2)n1`, the AC50 is 25.1 µM [rising, single point].

Turning to `O=C(NCc1ccco1)c1cc(-c2ccncc2)nc2ccccc12`, the AC50 is 5.01 µM [falling, single point].

`Cc1ccc(Nc2cc(-n3nc(C)cc3C)ncn2)cc1`: the concentration at half-maximal activity (AC50) is 0.398 µM [falling, full curve].

With `Cc1noc(C)c1CSc1nnc2scc(-c3ccccc3)n12`, the half-maximal activity concentration (AC50) is 1.58 µM [rising, full curve].

On to `Cc1ccc(-n2ncc3c(=O)[nH]c(SCC(=O)N4CCCCC4)nc32)cc1`, for which the AC50 is 10 µM [rising, partial curve].

As to `COc1ccc(CC(NC(C)=O)C(=O)NC2CCN(c3nnnn3-c3ccccc3)CC2)cc1` (stereo not drawn), the AC50 was 0.1 µM [falling, full curve].

`FC(F)(F)c1ccc(N2CCOCC2)c(NC2=NCCCCC2)c1`: the concentration at half-maximal activity (AC50) is 7.94 µM [falling, partial curve].

Take `COc1ccc(NC(=O)c2[nH]c(C)c(C(C)=O)c2C)cc1Cl`: the AC50 is 0.0251 µM [falling, full curve, poor fit].

As to `Cn1cc(S(=O)(=O)N2CCN(c3cccc(C(F)(F)F)c3)CC2)c(=O)n(C)c1=O`, the AC50 is 12.6 µM [rising, partial curve].

For `CCCN(CCC)C(=O)CSc1nc2n[nH]c(C)c2c(=N)n1-c1ccc(OCC)cc1`, the concentration at half-maximal activity (AC50) is 0.398 µM [rising, full curve].

For `CCNc1ncc2nc(-c3cn(C)c4ccccc34)c(=O)n(Cc3cccs3)c2n1`, the AC50 is 12.6 µM [rising, partial curve].

In the case of `CCOC(=O)c1[nH]c(C)c(/C(O)=C2\C(=O)C(=O)N(CCCN3CCOCC3)C2c2cccnc2)c1C` (stereo not drawn), the AC50 was 20 µM [falling, partial curve, poor fit].

These data come from PubChem BioAssay AID662 (National Center for Advancing Translational Sciences (NCATS), 2007).
